Test [1] addresses T1, SH2D1B, co-IP construct (human) (UniProt O14796).
T1 sequence: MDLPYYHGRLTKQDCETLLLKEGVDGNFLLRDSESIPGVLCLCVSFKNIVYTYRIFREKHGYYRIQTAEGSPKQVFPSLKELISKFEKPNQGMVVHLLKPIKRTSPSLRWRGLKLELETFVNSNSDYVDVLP
The test can be described thus: co-IP; luciferase-based co-IP from HEK293 (Flp-In TREX, stably ABL2, with or without doxycycline induction): protein A-tagged protein precipitated on IgG-coated plates, firefly-V5-tagged partner read by luminescence; lysis buffer H with phosphatase inhibitor, 4°C; triplicate transfections; positive at ratio > 2 and Z-score > 2.

Test [2] deals with T2, SH2D1B, two-hybrid bait (human) (UniProt O14796).
T2 sequence: T1 sequence
The test can be described thus: two-hybrid; pY-Y2H matrix screen and pairwise retest: pY-reader bait (pBTM116-D9) co-transformed with one of nine human non-receptor tyrosine kinases (pASZ-DM), mated with ~17,000 prey strains; growth on SD5 (-Leu-Trp-Ura-His-Ade), 30°C, 5-7 days; kinase dependency retested with all kinases and empty vectors.

Test [3] deals with PIK3R3 (p55γ regulatory subunit of PI3 kinase), two-hybrid bait (human) (UniProt Q92569). The test is described as above.
The target of test [4] is GST-PIK3R3 (FL, aa 1-461) (human) (UniProt Q92569). The test can be described thus: pull-down; GST fusion (GRB2(SH2) or PIK3R3 FL) from E. coli on glutathione agarose, incubated 2 h with lysate of cells expressing tagged TSPAN2 (ABL2 induced 24 h or H2O2 15 min); lysis buffer H (50 mM Hepes pH 7.4, 150 mM NaCl, 1% Triton X-100); immunoblot; in Fig 4B with and without phosphatase treatment of the lysate; only the target purified.

A further test addresses YFP-F2-PIK3R3 (human) (UniProt Q92569). The test can be described thus: split reporter; YFP-based protein complementation assay (Venus F1 aa 1-158, F2 aa 159-239) in transfected HEK293 cells, fixed 24 h after transfection, confocal microscopy.

Positions count from the first letter of the chain named. These are yes or no findings as the source states them, for the method shown. For part of these data: Binding seen in cells or lysates may run through a third protein. Some entries that bind do so weakly or less than the wild type. For part of these data: Sequences can lack the tags named with a protein.

B1: OLIG1, co-IP construct (protein, UniProt Q8TAK6 1-271)
chain: MYYAVSQARVNAVPGTMLRPQRPGDLQLGASLYELVGYRQPPSSSSSSTSSTSSTSSSSTTAPLLPKAAREKPEAPAEPPGPGPGSGAHPGGSARPDAKEEQQQQLRRKINSRERKRMQDLNLAMDALREVILPYSAAHCQGAPGRKLSKIATLLLARNYILLLGSSLQELRRALGEGAGPAAPRLLLAGLPLLAAAPGSVLLAPGAVGPPDALRPAKYLSLALDEPPCGQFALPGGGAGGPGLCTCAVCKFPHLVPASLGLAAVQAQFSK
On to B1, for which, in test [1], the binding entry was “binds”.

B2: OLIG1, two-hybrid prey (protein, UniProt Q8TAK6 1-271)
chain: B1 chain
Turning to B2, the binding entry in test [2] is “binds”.

B3: TSPAN2 (tetraspanin 2), two-hybrid prey (protein, UniProt O60636-1 1-221)
chain: MGRFRGGLRCIKYLLLGFNLLFWLAGSAVIAFGLWFRFGGAIKELSSEDKSPEYFYVGLYVLVGAGALMMAVGFFGCCGAMRESQCVLGSFFTCLLVIFAAEVTTGVFAFIGKGVAIRHVQTMYEEAYNDYLKDRGKGNGTLITFHSTFQCCGKESSEQVQPTCPKELLGHKNCIDEIETIISVKLQLIGIVGIGIAGLTIFGMIFSMVLCCAIRNSRDVI
For B3, the binding entry in test [3] is on record as “binds”.

B4: PA-TSPAN2 wild type (protein, UniProt O60636-1 1-221)
chain: B3 chain
Consider B4, for which the binding result in test [4] is “binds”.

B5: PA-TSPAN2-124Y (all tyrosines but Y124 mutated to phenylalanine) (protein, UniProt O60636-1 1-221)
chain: B3 chain with Y13F, Y54F, Y56F, Y60F, Y128F, Y131F
As to B5, in test [4], the binding result is “binds”.

B6: YFP-F1-TSPAN2 (protein, UniProt O60636-1 1-221)
chain: B3 chain
Turning to B6, the binding result with YFP-F2-PIK3R3 (human) is listed as “binds”.
